No constants are given. Whether binding was seen depends on the method and setting. For some assays here: In cells and extracts the contact can be indirect. Some results given as binding are weak or reduced against the parent protein; the word gives no strength. Tags and fused reporters may be left off the sequences shown.
Tests used:
[1] = target: T1, OPEN STOMATA 1 (OST1), fused to the N- or C-terminal fragment of YFP for BiFC (Arabidopsis thaliana) (UniProt Q940H6); experiment: split reporter; BiFC: OST1 and ABF3 fused to YFP^N and YFP^C, transiently expressed in Nicotiana benthamiana leaves; confocal microscopy 3 days after infiltration; YFP^N-AKINβ as negative control
T1 sequence: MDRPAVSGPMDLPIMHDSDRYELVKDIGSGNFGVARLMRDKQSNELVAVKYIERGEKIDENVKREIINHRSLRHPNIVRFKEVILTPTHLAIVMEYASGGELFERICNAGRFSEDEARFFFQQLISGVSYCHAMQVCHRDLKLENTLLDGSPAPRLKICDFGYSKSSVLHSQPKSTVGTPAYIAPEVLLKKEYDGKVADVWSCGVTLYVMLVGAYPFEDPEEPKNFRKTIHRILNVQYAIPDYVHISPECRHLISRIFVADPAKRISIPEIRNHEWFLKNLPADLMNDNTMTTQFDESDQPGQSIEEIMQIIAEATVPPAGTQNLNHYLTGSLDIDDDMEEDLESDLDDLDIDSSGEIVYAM

[2] = target: T2, Arabidopsis 14-3-3 protein GF14phi fused to GST (Arabidopsis) (UniProt P46077); experiment: pull-down; GST-GF14phi (0.4 nmole) on glutathione beads; 15 µM peptide phosphorylated by OST1 with ATP^γ32; 30 min at 25°C; 20 mM Tris-HCl pH 7.5, 150 mM NaCl, 1 mM CaCl2, 1 mM DTT, 0.05% Tween20; bound peptide counted by Cerenkov counting; both purified
T2 sequence: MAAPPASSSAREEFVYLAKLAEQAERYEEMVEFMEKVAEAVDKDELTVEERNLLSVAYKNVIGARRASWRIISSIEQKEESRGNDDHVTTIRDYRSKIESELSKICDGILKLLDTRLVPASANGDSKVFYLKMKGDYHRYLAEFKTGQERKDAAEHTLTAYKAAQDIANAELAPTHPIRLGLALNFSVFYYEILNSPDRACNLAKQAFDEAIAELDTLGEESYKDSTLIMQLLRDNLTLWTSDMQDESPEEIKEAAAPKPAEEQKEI

B1: ABA-responsive-element Binding Factor 3 (ABF3), fused to the N- or C-terminal fragment of YFP for BiFC (protein, UniProt Q9M7Q3 1-454)
chain: MGSRLNFKSFVDGVSEQQPTVGTSLPLTRQNSVFSLTFDEFQNSWGGGIGKDFGSMNMDELLKNIWTAEESHSMMGNNTSYTNISNGNSGNTVINGGGNNIGGLAVGVGGESGGFFTGGSLQRQGSLTLPRTISQKRVDDVWKELMKEDDIGNGVVNGGTSGIPQRQQTLGEMTLEEFLVRAGVVREEPQPVESVTNFNGGFYGFGSNGGLGTASNGFVANQPQDLSGNGVAVRQDLLTAQTQPLQMQQPQMVQQPQMVQQPQQLIQTQERPFPKQTTIAFSNTVDVVNRSQPATQCQEVKPSILGIHNHPMNNNLLQAVDFKTGVTVAAVSPGSQMSPDLTPKSALDASLSPVPYMFGRVRKTGAVLEKVIERRQKRMIKNRESAARSRARKQAYTMELEAEIAQLKELNEELQKKQVEIMEKQKNQLLEPLRQPWGMGCKRQCLRRTLTGPW
- binding [1]: binds

Binder: MALQRQGSLTLPKKK (phosphoserine at S126 (phosphorylated in vitro by OST1, 32P-labelled)) [ABF3S126 peptide phosphorylated by OST1]
- binding [2]: no binding (tested: 15 µM peptide)
